The text below walks through data of paper doi:10.1101/2022.07.28.501905.

These are yes or no findings as the source states them, for the method shown. Binding seen in cells or lysates may run through a third protein. Binding can be weak; no strength is given. Where a sequence is shown, tags or fusion partners need not be part of it.

The target in the test is GcR8IP1-HA (full length Gc-RPW8.2 interacting protein 1) (Golovinomyces cichoracearum UCSC1). Kind of test: co-IP.

B1: RPW8.2-FLAG (protein, UniProt Q9C5Z6 1-174)
chain: MIAEVAAGGALGLALSVLHEAVKRAKDRSVTTRFILHRLEATIDSITPLVVQIDKFSEEMEDSTSRKVNKRLKLLLENAVSLVEENAELRRRNVRKKFRYMRDIKEFEAKLRWVVDVDVQVNQLADIKELKAKMSEISTKLDKIMPQPKFEIHIGWCSGKTNRAIRFTFCSDDS
In the case of B1, the binding entry is on record as “binds”.
